PubChem BioAssay AID720505, Drosophila RNAi Screening Center, 2013
In all, the deposit lists about 20,000 reagents; this is a random part of those with a known target gene and a result. In the full data, about 2,100 (10%) are marked active. 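Raw plate signals without normalisation; calls rest on control-based scores that were not deposited; replicate 2 separates called from uncalled poorly.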 Names joined by + are all predicted targets of the reagent. Not given: the amount of reagent, the time to read-out.

Assay: 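Fly regulators or components of the CRAC channel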 (primary screen)
Cells: Drosophila S2R+ cells
Reagents: long dsRNA against Drosophila genes
Challenge: thapsigargin (2 µM) in calcium-free buffer to empty internal stores, then 2 mM calcium added back
Measurement: 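Stores emptied by 2 µM thapsigargin without calcium, then 2 mM calcium re-added; fluo-4 fluorescence followed by FLIPR in 384-well plates, per-well averaged endpoint, raw; two screen passes, some wells retested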
Direction: calcium signal: higher = more calcium entry after store depletion
Active means: 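Knock-downs counted as hits when calcium entry dropped relative to STIM1 positive and Rho1 negative controls present on each plate; roughly 1500 genes called, with reductions of differing size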
Calls: active = called as lowering calcium entry; inactive = not called

no.	Target gene	dsRNA	calcium signal, replicate 1	calcium signal, replicate 2	activity call
1	CG8066	DRSC16374	152	154	inactive
2	CG13693	DRSC00362	180	108	inactive
3	witty	DRSC02378	170	170	inactive
4	witty	DRSC21650	186	104	inactive
5	CG4563	DRSC04474	171	178	inactive
6	mr	DRSC04332	106	83.6	inactive
7	mr	DRSC22856	90.6	88.3	inactive
8	IFT57	DRSC00720	181	115	inactive
9	CG11035	DRSC14287	109	163	inactive
10	CG9030	DRSC20139	65.7	133	active
11	CG8478	DRSC16427	152	88	inactive
12	CG10097 + CG10096	DRSC14189	139	161	inactive
13	CG10097 + CG10096	DRSC14190	145	117	inactive

3 entries already listed, arranged by “calcium signal, replicate 1”, ascending.
Target gene	dsRNA	calcium signal, replicate 1	calcium signal, replicate 2	activity call
CG8066	DRSC16374	152	154	inactive
witty	DRSC02378	170	170	inactive
CG13693	DRSC00362	180	108	inactive

Next reagents:
no.	Target gene	dsRNA	calcium signal, replicate 1	calcium signal, replicate 2	activity call
14	sstn	DRSC10753	93	155	inactive
15	Rab9Fb	DRSC19854	57.5	84.8	active
16	Vha36-2	DRSC06294	96	130	inactive
17	CG32548	DRSC19627	99.4	116	inactive
18	CG32548	DRSC19982	184	139	inactive
19	HDAC3	DRSC12352	91.9	187	inactive
20	sNPF	DRSC02309	92.6	89.8	inactive
21	lncRNA:CR30009	DRSC22952	77.9	201	inactive
22	CG7460	DRSC10850	101	139	inactive
23	Cdc42	DRSC20228	103	108	inactive
24	ppk28	DRSC19919	103	107	inactive
25	CG15111	DRSC21467	137	84.2	inactive
26	CG14075	DRSC10080	69.1	129	active
27	Chrac-16	DRSC20343	81.1	83.8	inactive
28	SNF4Agamma	DRSC13463	76.9	102	inactive
29	SNF4Agamma	DRSC15879	138	148	inactive
30	SNF4Agamma	DRSC16847	189	379	inactive
31	CG14570	DRSC11731	91.1	157	inactive
32	Neb-cGP	DRSC17991	83.2	97.3	inactive
33	Amy-p	DRSC06786	169	158	inactive
34	Traf-like	DRSC19894	129	137	inactive
